Three molecules from publication PMC12598764 can be followed below.

No constants are given. Whether binding was seen depends on the method and setting. For part of these data: Binding seen in cells or lysates may run through a third protein. Some entries that bind do so weakly or less than the wild type. Sequences can lack the tags named with a protein.

Assay [1] has as its target T1, HIGH OSMOTIC STRESS GENE EXPRESSION 5 (HOS5), yeast two-hybrid fusion (Arabidopsis thaliana) (UniProt Q8W4B1).
T1 sequence: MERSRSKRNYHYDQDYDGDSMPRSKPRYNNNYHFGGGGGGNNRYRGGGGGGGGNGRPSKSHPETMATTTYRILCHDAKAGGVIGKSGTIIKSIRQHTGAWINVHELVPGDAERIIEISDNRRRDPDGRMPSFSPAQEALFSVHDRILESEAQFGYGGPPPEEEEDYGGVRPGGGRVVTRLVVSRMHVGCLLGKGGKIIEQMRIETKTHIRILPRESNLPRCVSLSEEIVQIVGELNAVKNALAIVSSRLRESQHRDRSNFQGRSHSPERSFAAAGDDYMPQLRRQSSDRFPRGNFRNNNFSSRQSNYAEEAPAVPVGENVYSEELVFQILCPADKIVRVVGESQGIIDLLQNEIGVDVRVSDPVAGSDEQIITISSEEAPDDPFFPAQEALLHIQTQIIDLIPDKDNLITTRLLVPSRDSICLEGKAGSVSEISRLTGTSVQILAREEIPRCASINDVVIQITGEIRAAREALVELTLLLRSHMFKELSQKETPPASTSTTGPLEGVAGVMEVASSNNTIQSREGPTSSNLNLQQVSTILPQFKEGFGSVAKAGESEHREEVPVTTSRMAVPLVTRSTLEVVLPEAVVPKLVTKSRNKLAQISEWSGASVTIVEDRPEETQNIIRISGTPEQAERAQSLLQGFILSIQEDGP
As to the kind of experiment: two-hybrid; LexA-inducible system, pGilda and pB42AD constructs co-transformed in yeast EGY48; induction on galactose and raffinose plates; X-gal colorimetric assay (blue colonies); empty vectors as negative controls.

The target in assay [2] is T2, HIGH OSMOTIC STRESS GENE EXPRESSION 5 (HOS5), BiFC fusion to a half of YFP (Arabidopsis thaliana) (UniProt Q8W4B1).
T2 sequence: T1 sequence
As to the kind of experiment: split reporter; BiFC with YFPct and YFPnt fusions (35S promoter) in agroinfiltrated Nicotiana benthamiana leaf cells; YFP fluorescence seen 72 h after inoculation by epifluorescence microscopy; signal in nuclei; negative control YFPct construct with empty YFPnt.

B1: CPL1, yeast two-hybrid fusion (protein, UniProt Q5YDB6 1-967)
chain: MYSNNRVEVFHGDGRLGELEIYPSRELNQQQDDVMKQRKKKQREVMELAKMGIRISHFSQSGERCPPLAILTTISSCGLCFKLEASPSPAQESLSLFYSSCLRDNKTAVMLLGGEELHLVAMYSENIKNDRPCFWAFSVAPGIYDSCLVMLNLRCLGIVFDLDETLVVANTMRSFEDKIDGFQRRINNEMDPQRLAVIVAEMKRYQDDKNLLKQYIESDQVVENGEVIKVQSEIVPALSDNHQPLVRPLIRLQEKNIILTRINPMIRDTSVLVRMRPSWEELRSYLTAKGRKRFEVYVCTMAERDYALEMWRLLDPEGNLINTNDLLARIVCVKSGFKKSLFNVFLDGTCHPKMALVIDDRLKVWDEKDQPRVHVVPAFAPYYSPQAEAAATPVLCVARNVACGVRGGFFRDFDDSLLPRIAEISYENDAEDIPSPPDVSHYLVSEDDTSGLNGNKDPLSFDGMADTEVERRLKEAISASSAVLPAANIDPRIAAPVQFPMASASSVSVPVPVQVVQQAIQPSAMAFPSIPFQQPQQPTSIAKHLVPSEPSLQSSPAREEGEVPESELDPDTRRRLLILQHGQDTRDPAPSEPSFPQRPPVQAPPSHVQSRNGWFPVEEEMDPAQIRRAVSKEYPLDSEMIHMEKHRPRHPSFFSKIDNSTQSDRMLHENRRPPKESLRRDEQLRSNNNLPDSHPFYGEDASWNQSSSRNSDLDFLPERSVSATETSADVLHGIAIKCGAKVEYKPSLVSSTDLRFSVEAWLSNQKIGEGIGKSRREALHKAAEASIQNLADGYMRANGDPGPSHRDATPFTNENISMGNANALNNQPFARDETALPVSSRPTDPRLEGSMRHTGSITALRELCASEGLEMAFQSQRQLPSDMVHRDELHAQVEIDGRVVGEGVGSTWDEARMQAAERALSSVRSMLGQPLHKRQGSPRSFGGMSNKRLKPDFQRSLQRMPSSGRYS
As to B1, the binding entry in assay [1] is “binds”.

B2: FLOWERING LOCUS K (FLK), yeast two-hybrid fusion (protein, UniProt Q9SR13 1-577)
chain: MAEAEDQQNFVAHNGDQVPDQGSDELHNGLPYQVHDETLVHQPYEVEDPILEPQQYEVPDPTLEPQQYEVPDQTLEPQQYEVDDQLEYHQYQLQDQANEDVQDHSQDDLQYQPQNQEQFQLQDEAHDQAQYQAQGDVQDHNGDEVQDKVEDEEGIPEHLESLQKSEPEEDATVGGEEKRWPGWPGETVFRMLVPAQKVGSIIGRKGDVIKKIVEETRARIKILDGPPGTTERAVMVSGKEEPESSLPPSMDGLLRVHMRIVDGLDGEASQAPPPSKVSTRLLVPASQAGSLIGKQGGTVKAIQEASACIVRVLGSEDLPVFALQDDRVVEVVGEPTSVHRALELIASHLRKFLVDRSIIPFFENQMQKPTRQMDHMPPPHQSWGPPQGHAPSVGGGGYGHNPPPYMQPPPRHDSYYPPPEMRQPPMEKQPHQGISAYGREPPMNVHVSSAPPMVAQQVTQQMQIPLSYADAVIGTSGSNISYTRRLSGATVTIQETRGVPGEMTVEVSGTGSQVQTAVQLIQNFMAEAGAPAPAQPQTVAPEQQGYNPYATHGSVYAAAPTNPPGGYATDYSSGYGY
Consider B2, for which, in assay [1], the binding result is on record as “binds”.

B3: FLOWERING LOCUS K (FLK), BiFC fusion to a half of YFP (protein, UniProt Q9SR13 1-577)
chain: B2 chain
As for B3, the binding entry in assay [2] is listed as “binds”.
